Measurements taken from PubChem BioAssay AID540276 (National Center for Advancing Translational Sciences (NCATS), 2011).
Several values for one entry are separate records, joined by “and”; a condition that tells them apart may be missing. Equal values may be shown once. The campaign covered roughly 300,000 compounds. About 5,400 (1.8%) were called active. The shares of active, inactive and inconclusive entries below differ from those in the screen. Calls follow the shape of the full dose curve; tested in HEK293 cells. A potency beside an inconclusive call is a rough fit, not a confirmed value.

Test: qHTS for inhibitors of binding or entry into cells for Marburg Virus
Details: Marburg virus pseudotyped entry inhibition, cell reporter; series mostly up to 37.8 µM
Potency is read from the fitted curve at half-maximal effect.

Row | Structure (SMILES) | Potency
1 | COc1ccc(Cl)c2sc(NC(=O)C3=COCCO3)nc12 | inactive
2 | CCOc1ccc(NC(=O)CN(C)C(=O)c2c(-c3c(F)cccc3Cl)noc2C)cc1OCC | inactive
3 | O=C(CCNC(=O)c1ccc(Cl)cc1)NCCC1=CCCCC1 | inconclusive: 5.62 µM [activator, single point]
4 | CCCNC(=O)N(CCOC)CC1CCCN(C2Cc3ccccc3C2)C1 (stereo unspecified) | inconclusive: 22.4 µM [inhibitor, partial curve, poor fit]
5 | Cc1cc(SCC(=O)O)nc2ccccc12 | inactive and inconclusive: 5.62 µM [inhibitor, single point]
6 | CC(C)(C)C1CCc2c(sc(NC(=O)C3CC=CCC3C(=O)O)c2C#N)C1 (stereo unspecified) | inconclusive: 2.51 µM [activator, partial curve, poor fit]
7 | COc1cc(OC)cc(C(=O)NNC(=O)Cc2ccc(OC)c(S(=O)(=O)N3CCOCC3)c2)c1 | inactive
8 | C(=N\Nc1nc2ccccc2[nH]1)/c1cccc2nccnc12 | inconclusive: 3.98 µM [inhibitor, full curve, poor fit]
9 | COC(=O)c1sccc1NC(=O)CN(C)NS(=O)(=O)c1ccc(F)cc1 | inconclusive: 29.1 µM [inhibitor, single point]
10 | CCOC(=O)N1CCN(C(=O)CSc2nnc(-c3cc(OC)ccc3OC)o2)CC1 | inconclusive: 22.4 µM [inhibitor, partial curve, poor fit]
11 | Cc1nc2sc(C(=O)Nc3ccc(F)cc3)c(N)c2c(-c2ccc(Br)cc2)c1C(=O)Nc1ccc(Cl)cc1 | inconclusive: 3.16 µM [inhibitor, single point]
12 | O=C(CCN1C(=O)/C(=C/c2ccccc2)SC1=S)Nc1cccnc1 | inconclusive: 10 µM [inhibitor, partial curve, poor fit]
13 | Cc1c(Cl)sn(-c2ccc(Cl)cc2)c1=O | inconclusive: 14.6 µM [inhibitor, partial curve]
14 | COc1ccc(CCNC(=O)c2c(N)n(CCN3CCOCC3)c3nc4ccccc4nc23)cc1 | inconclusive: 17.8 µM [inhibitor, single point]
15 | O=C(NC(=S)N1CCN(C/C=C/c2ccccc2)CC1)c1ccc(F)cc1 | inconclusive: 35.5 µM [inhibitor, single point]
16 | CCC(=O)Nc1ccc(C(=O)CSc2nc3ccc(C)cc3[nH]2)cc1 | inconclusive: 22.4 µM [activator, single point]
17 | Cc1cc(NC(=O)COC(=O)COc2ccc3c4c(c(=O)oc3c2)CCC4)no1 | inactive
18 | Cc1ccc2[nH]cc(C(=O)CCl)c2c1 | inconclusive: 6.31 µM [inhibitor, single point]
19 | O=C(NCc1ccccn1)c1ccc(CNS(=O)(=O)c2cccc(Cl)c2)cc1 | inconclusive: 0.231 µM [inhibitor, single point]
20 | COCCn1c(SCCOc2ccccc2)nc2ccccc2c1=O | inconclusive: 35.5 µM [inhibitor, single point]
21 | COc1ccc(CCN(Cc2cccs2)S(=O)(=O)c2ccc(C(=O)O)cc2)cc1OC | inconclusive: 12.6 µM [activator, single point]

Row | Structure (SMILES) | Potency
22 | COc1ccccc1NC(=O)c1oc2ccccc2c1NC(=O)c1ccccc1C(F)(F)F | inconclusive: 3.55 µM [inhibitor, single point]
23 | COc1ccc(NC(=O)c2cc(-c3ccc4c(c3)OCO4)on2)cc1 | inconclusive: 3.98 µM [activator, partial curve, poor fit]
24 | O=C1NC(=O)C(Cc2ccccc2)(Cc2ccccc2)C(=O)N1Cc1ccccc1 | inconclusive: 25.1 µM [inhibitor, single point]
25 | COc1ccc(C2C=C(C34CC5CC(CC(C5)C3)C4)NC(=S)N2)cc1 (stereo unspecified) | active: 14.6 µM
26 | Cc1cccc(NC(=O)Cc2ccc(-c3ccccc3)cc2)n1 | inactive
27 | CC12CCC(C(=O)Nc3ncc([N+](=O)[O-])s3)(OC1=O)C2(C)C (stereo unspecified) | inconclusive: 2.59 µM [inhibitor, partial curve, poor fit]
28 | CN(C)CCNS(=O)(=O)c1ccc(N2CCc3ccccc32)c([N+](=O)[O-])c1 | inconclusive: 12.6 µM [inhibitor, partial curve, poor fit]
29 | N#Cc1ccc(C(=O)Nc2ccn(-c3ccccc3)n2)cc1 | inconclusive: 25.1 µM [inhibitor, single point]
30 | CCCCNS(=O)(=O)c1ccc(NC(=O)C(Sc2ccccc2)c2ccccc2)cc1 (stereo unspecified) | inconclusive: 17.8 µM [inhibitor, partial curve, poor fit]
31 | CC1(c2ccccc2)CC(C)(C)N(C(=O)CSc2nnc(N)s2)c2ccccc21 (stereo unspecified) | inconclusive: 35.5 µM [inhibitor, single point]
32 | CC(=O)Nc1ccc(NC(=O)Cn2cnc3c(cnn3C(C)(C)C)c2=O)cc1 | inactive
33 | CCCCn1c(O)c(C(C)=Nc2ccc3c(c2)CCC3)c(=O)[nH]c1=O | inconclusive: 1.12 µM [activator, partial curve, poor fit]
34 | CCCCCNCc1ccc(OCc2ccc(Cl)nc2)c(OC)c1 | inconclusive: 25.9 µM [inhibitor, single point]
35 | CCCCOc1ccc(C(=O)N2CCCCCC2)cc1 | inconclusive: 35.5 µM [activator, single point]
36 | Cc1ccc(-c2nnc(SCC(=O)NC3CCCC3)n2C)cc1 | inactive
37 | Cc1ccc(C2(C)NC(=O)N(CC(=O)Nc3cc(S(=O)(=O)N(C)C)ccc3C)C2=O)cc1 (stereo unspecified) | inconclusive: 10 µM [inhibitor, partial curve, poor fit]
38 | Cc1ccc(-n2nc(C(=O)Nc3ccc(Cl)cn3)c3c4ccccc4n(C)c3c2=O)cc1 | inactive
39 | COc1ccc(N2CC(C(=O)Nc3nnc(SCC(=O)NCc4ccco4)s3)CC2=O)cc1 (stereo unspecified) | inactive
40 | CC1=C(C(=O)OCC(C)C)C(c2ccc(OCc3ccccc3)cc2)N2C(=O)CCSC2=N1 (stereo unspecified) | inconclusive: 35.5 µM [inhibitor, single point]
41 | NNC(=O)c1ccc(COCC(F)(F)F)cc1 | inconclusive: 3.16 µM [activator, partial curve, poor fit]

Some of the entries above, reformatted:
O=C1NC(=O)C(Cc2ccccc2)(Cc2ccccc2)C(=O)N1Cc1ccccc1
  Potency: inconclusive: 25.1 µM [inhibitor, single point]
CC12CCC(C(=O)Nc3ncc([N+](=O)[O-])s3)(OC1=O)C2(C)C (stereo unspecified)
  Potency: inconclusive: 2.59 µM [inhibitor, partial curve, poor fit]
